Results reported in the M2OR odorant receptor database.
Only a part is listed here, and it is no random draw. The calls were merged from several studies; some rest on single wells. The list shows a part of the results.

What was measured:
Conditions in all cases: stereoisomer not certain
[1] = tested on: T1, O4F17
T1 sequence (whole entry): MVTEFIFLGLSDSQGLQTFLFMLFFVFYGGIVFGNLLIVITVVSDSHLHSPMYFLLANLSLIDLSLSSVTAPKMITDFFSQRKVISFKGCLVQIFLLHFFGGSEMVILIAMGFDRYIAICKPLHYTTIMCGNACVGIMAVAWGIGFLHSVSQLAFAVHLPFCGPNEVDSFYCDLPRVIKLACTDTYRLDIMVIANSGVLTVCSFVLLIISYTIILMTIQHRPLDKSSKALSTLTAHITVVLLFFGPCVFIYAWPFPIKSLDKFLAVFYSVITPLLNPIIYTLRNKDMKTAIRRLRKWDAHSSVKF
Outline: (§1)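 Assay methods differ from source to source, frequently being transient luciferase assays in mammalian cell lines. For each receptor–molecule pair, the label responsive (active) applies when the original authors judged the measured signal statistically different from baseline, and non-responsive (inactive) applies otherwise.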

[2] = tested on: T2, O4F21
T2 sequence (whole entry): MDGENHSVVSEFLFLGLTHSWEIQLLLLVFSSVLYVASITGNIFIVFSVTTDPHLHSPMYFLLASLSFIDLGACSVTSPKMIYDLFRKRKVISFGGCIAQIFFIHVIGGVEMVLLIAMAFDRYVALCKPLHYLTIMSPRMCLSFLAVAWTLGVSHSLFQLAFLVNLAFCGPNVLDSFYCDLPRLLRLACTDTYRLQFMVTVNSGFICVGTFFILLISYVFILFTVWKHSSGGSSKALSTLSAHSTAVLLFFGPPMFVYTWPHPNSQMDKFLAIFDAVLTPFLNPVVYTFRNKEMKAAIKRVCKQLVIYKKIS
Outline: as §1

[3] = tested on: T3, O51A4
T3 sequence (whole entry): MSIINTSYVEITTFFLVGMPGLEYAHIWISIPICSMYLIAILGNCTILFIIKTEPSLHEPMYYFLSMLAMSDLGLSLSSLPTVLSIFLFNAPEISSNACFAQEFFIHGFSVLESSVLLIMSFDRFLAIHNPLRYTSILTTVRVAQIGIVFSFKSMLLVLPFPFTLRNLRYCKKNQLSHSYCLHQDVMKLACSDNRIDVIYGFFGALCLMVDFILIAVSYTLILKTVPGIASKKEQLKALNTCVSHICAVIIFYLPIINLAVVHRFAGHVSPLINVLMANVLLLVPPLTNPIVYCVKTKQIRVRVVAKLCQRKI
Outline: as §1

[4] = tested on: T4, O51B4
T4 sequence (whole entry): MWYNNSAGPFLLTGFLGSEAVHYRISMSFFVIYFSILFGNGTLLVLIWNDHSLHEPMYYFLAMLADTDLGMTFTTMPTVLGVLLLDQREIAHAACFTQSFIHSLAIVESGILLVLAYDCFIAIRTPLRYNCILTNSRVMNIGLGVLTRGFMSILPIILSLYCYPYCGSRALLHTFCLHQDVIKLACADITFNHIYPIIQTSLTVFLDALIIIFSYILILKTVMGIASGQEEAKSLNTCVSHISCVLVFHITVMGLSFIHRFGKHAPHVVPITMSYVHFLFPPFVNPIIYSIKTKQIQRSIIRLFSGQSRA
Outline: as §1

[5] = tested on: T5, O51B5
T5 sequence (whole entry): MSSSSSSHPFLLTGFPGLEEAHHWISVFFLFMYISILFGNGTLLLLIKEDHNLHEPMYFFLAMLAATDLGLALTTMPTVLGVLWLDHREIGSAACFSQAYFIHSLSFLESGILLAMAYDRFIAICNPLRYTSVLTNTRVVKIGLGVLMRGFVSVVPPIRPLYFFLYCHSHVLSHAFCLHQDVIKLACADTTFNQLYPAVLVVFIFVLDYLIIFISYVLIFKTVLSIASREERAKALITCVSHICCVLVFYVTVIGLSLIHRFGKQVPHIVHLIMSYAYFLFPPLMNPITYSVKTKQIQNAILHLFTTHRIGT
Outline: as §1

[6] = tested on: T6, O51B6
T6 sequence (whole entry): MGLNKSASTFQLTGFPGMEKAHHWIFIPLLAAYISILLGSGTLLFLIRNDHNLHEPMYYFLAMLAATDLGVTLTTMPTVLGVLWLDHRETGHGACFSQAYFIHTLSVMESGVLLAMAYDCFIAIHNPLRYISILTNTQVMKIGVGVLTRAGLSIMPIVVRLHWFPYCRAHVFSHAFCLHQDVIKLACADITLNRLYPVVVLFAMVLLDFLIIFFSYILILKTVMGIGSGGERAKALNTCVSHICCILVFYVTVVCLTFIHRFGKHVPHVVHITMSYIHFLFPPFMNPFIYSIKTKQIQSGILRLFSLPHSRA
Outline: as §1

[7] = tested on: T7, O51E1
T7 sequence (whole entry): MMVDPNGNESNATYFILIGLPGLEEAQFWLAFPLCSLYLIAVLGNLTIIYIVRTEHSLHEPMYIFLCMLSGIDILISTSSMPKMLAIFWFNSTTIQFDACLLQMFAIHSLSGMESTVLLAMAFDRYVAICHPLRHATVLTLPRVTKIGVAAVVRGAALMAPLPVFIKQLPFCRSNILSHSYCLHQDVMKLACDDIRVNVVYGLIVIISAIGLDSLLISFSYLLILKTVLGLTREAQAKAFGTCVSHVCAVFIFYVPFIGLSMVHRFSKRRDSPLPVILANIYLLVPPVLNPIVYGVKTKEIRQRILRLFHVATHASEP
Outline: as §1

[8] = tested on: T8, O51F1
T8 sequence (whole entry): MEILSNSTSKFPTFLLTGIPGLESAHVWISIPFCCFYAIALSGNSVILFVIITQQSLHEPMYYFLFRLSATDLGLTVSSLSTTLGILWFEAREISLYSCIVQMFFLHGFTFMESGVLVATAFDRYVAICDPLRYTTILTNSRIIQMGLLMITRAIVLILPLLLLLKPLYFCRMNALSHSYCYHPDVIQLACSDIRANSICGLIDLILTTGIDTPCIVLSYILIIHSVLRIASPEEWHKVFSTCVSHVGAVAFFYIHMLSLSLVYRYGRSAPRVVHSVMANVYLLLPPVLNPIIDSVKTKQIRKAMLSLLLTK
Outline: as §1

[9] = tested on: T9, O51F2
T9 sequence (whole entry): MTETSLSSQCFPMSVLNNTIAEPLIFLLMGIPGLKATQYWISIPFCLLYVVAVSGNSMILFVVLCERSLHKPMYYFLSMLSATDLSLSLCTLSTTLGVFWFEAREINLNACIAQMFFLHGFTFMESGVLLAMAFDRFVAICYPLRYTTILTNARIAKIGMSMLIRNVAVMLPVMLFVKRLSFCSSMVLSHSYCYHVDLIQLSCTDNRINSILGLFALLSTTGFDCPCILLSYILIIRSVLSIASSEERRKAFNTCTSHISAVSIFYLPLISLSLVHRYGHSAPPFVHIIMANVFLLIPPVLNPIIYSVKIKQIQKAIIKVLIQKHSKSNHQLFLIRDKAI
Outline: as §1

Measured: odorant receptor agonist call

CCCCCCCOC(C)=O
inactive: all assays above

O=C1CCCCCCCCCCCCCCO1
inactive: all assays above

CCCCCCCCCC=O
inactive: all assays above

CC=Cc1ccc(O)c(OC)c1
active: [2] | [4] | [5] | [7]
inactive: all other assays above

c1cnccn1
inactive: all assays above

CC1CCC(C(C)C)C(O)C1 (stereo not drawn)
active: [1] | [5]
inactive: all other assays above

Two successive records out of the list so far, quoted:
CC=Cc1ccc(O)c(OC)c1
active: [2] | [4] | [5] | [7]
inactive: all other assays above

c1cnccn1
inactive: all assays above

Next results:

CC(=O)OC(C)(C)C1CC=C(C)CC1 (stereo not drawn)
active: [1] | [6]
inactive: all other assays above

C=CCc1ccc(OC)c(OC)c1
inactive: all assays above

CCCC(=O)O
active: [4]
inactive: all other assays above

CC(C)(C)c1ccc(CCC=O)cc1
active: [1] | [6]
inactive: all other assays above

CCC=CCCO
active: [4]
inactive: all other assays above

CCCCCCCC=CC=O
active: [1] | [6] | [7]
inactive: all other assays above
